Measurements published in the supplement of paper PMC6411743.
± gives the standard deviation of the averaged measurements. The list shows a part of the results.

Amino acid sequences for entries named in this document (tags omitted). A change or cut given only in a name is not applied to a line headed by its entry.
UniProt P63167, whole entry: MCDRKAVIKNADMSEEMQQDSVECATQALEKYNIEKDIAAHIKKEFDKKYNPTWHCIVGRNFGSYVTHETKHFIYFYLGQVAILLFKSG
UniProt P84103: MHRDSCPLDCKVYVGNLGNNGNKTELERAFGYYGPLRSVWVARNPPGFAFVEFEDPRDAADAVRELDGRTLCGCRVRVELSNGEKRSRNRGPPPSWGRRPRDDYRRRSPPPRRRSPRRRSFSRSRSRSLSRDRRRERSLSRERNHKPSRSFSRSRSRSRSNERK
UniProt P54619: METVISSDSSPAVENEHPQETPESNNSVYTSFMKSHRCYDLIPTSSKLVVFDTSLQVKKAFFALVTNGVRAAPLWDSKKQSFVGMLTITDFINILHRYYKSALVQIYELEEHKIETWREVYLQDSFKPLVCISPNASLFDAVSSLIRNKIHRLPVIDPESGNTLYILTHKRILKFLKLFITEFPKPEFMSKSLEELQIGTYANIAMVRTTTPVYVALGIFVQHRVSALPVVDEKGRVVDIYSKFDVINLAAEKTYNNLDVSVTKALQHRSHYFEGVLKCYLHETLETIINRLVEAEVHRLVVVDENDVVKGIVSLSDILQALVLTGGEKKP
UniProt P52758: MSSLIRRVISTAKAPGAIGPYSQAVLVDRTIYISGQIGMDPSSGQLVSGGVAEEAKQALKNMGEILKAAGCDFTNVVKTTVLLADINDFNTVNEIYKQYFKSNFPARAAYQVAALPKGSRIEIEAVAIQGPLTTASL
UniProt P50502: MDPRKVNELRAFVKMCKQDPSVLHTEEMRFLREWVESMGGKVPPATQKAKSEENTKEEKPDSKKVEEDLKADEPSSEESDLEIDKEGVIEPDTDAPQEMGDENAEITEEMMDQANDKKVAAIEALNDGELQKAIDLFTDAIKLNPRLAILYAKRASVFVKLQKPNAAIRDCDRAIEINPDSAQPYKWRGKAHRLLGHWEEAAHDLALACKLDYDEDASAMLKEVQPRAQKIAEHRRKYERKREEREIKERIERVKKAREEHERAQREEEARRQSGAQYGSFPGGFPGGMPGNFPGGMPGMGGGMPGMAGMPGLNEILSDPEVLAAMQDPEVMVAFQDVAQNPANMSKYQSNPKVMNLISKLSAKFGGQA
UniProt P57081: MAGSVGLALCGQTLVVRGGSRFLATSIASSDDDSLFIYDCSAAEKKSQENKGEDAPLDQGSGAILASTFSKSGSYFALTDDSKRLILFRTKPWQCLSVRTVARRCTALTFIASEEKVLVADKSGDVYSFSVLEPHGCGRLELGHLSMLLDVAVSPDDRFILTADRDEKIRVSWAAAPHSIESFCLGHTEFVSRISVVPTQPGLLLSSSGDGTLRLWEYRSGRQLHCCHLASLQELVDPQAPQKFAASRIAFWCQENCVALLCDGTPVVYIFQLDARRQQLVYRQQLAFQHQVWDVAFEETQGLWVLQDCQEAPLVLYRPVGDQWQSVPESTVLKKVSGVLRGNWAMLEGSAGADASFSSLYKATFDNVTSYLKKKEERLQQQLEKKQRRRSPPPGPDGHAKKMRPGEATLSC
UniProt P78332: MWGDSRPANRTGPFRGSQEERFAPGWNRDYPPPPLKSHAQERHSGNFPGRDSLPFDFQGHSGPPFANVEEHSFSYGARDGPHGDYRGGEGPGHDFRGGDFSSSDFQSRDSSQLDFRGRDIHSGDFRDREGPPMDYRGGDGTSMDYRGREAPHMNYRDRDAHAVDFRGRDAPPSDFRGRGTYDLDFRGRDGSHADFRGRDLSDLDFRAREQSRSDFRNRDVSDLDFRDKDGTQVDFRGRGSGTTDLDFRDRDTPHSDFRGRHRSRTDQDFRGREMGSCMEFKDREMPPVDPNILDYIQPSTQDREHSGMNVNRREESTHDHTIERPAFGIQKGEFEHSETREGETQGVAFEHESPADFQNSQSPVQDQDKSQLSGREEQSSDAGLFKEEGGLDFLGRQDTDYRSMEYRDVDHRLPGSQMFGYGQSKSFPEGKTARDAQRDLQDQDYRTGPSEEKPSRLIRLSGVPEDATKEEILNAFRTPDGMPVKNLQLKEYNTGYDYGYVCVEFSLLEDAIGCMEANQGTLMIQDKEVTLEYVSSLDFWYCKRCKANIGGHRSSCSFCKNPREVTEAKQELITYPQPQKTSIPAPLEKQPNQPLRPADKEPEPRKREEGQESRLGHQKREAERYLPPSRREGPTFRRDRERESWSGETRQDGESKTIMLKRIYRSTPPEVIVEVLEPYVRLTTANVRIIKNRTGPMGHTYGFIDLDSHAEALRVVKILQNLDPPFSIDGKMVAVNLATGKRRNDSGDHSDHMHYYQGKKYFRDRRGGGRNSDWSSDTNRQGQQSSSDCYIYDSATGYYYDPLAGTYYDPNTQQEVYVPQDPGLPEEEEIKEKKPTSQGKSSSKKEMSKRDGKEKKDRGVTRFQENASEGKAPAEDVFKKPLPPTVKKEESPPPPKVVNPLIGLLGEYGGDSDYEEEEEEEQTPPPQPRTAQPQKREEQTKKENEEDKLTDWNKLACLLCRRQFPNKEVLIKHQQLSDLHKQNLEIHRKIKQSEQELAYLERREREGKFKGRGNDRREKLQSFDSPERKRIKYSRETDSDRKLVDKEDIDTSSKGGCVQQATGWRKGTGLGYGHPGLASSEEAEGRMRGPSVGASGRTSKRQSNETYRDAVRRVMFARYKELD
UniProt P51570: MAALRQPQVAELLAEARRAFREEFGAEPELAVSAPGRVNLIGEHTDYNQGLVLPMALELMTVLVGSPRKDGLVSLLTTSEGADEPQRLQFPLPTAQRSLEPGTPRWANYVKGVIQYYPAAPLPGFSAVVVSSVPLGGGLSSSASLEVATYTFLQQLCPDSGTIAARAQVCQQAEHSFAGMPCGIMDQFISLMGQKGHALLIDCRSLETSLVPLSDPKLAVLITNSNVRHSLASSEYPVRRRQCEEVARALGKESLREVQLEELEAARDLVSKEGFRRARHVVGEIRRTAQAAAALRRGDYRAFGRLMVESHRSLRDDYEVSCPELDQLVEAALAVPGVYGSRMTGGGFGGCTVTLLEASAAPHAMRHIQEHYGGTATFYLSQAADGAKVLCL
UniProt P57076: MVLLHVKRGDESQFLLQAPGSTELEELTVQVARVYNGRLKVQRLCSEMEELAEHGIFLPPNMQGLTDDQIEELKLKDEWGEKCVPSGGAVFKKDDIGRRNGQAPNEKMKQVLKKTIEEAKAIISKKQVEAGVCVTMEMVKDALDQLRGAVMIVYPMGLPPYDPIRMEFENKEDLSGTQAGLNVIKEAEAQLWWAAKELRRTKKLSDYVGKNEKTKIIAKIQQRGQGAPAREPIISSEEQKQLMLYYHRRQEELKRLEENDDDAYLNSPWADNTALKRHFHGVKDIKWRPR
UniProt P56134: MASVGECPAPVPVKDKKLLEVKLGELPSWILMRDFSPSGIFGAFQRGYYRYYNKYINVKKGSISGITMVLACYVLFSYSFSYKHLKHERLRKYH
UniProt P55809: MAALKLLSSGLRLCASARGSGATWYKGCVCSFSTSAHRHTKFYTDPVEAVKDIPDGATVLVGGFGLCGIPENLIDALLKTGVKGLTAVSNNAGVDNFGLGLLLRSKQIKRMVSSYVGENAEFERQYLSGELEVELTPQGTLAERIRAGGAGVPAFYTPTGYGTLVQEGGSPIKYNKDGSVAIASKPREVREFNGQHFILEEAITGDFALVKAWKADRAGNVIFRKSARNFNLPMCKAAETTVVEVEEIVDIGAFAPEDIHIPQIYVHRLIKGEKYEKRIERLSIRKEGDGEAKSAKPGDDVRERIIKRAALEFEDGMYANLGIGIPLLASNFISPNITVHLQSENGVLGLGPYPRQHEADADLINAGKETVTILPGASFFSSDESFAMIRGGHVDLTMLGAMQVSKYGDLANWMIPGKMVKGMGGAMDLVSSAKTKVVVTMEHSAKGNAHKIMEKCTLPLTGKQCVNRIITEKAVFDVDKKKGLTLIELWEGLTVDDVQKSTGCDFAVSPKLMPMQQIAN
UniProt P61204: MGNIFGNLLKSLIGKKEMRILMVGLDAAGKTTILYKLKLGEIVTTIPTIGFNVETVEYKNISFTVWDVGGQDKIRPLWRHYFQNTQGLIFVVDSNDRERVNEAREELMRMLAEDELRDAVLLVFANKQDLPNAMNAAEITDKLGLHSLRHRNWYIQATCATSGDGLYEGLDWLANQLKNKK
UniProt P61225: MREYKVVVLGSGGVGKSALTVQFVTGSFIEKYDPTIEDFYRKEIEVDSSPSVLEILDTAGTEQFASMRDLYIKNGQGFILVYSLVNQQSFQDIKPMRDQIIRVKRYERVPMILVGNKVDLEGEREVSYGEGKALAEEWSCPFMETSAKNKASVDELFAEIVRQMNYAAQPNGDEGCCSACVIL
UniProt P58557: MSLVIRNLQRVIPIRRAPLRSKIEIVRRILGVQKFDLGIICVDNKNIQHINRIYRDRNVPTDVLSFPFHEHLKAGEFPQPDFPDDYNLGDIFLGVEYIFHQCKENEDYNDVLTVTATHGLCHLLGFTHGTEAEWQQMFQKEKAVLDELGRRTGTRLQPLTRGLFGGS
UniProt P63092, whole entry, looked up: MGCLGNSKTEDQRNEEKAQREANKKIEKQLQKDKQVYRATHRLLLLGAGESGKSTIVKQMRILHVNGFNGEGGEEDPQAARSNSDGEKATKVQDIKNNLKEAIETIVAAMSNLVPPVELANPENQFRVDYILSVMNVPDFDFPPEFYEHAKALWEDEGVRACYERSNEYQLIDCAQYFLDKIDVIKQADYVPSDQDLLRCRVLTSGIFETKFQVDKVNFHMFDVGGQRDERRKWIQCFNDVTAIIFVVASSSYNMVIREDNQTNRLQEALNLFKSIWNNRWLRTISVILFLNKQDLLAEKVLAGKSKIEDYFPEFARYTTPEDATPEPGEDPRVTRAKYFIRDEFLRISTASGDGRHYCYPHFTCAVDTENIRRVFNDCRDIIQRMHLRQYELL
UniProt P51532, whole entry: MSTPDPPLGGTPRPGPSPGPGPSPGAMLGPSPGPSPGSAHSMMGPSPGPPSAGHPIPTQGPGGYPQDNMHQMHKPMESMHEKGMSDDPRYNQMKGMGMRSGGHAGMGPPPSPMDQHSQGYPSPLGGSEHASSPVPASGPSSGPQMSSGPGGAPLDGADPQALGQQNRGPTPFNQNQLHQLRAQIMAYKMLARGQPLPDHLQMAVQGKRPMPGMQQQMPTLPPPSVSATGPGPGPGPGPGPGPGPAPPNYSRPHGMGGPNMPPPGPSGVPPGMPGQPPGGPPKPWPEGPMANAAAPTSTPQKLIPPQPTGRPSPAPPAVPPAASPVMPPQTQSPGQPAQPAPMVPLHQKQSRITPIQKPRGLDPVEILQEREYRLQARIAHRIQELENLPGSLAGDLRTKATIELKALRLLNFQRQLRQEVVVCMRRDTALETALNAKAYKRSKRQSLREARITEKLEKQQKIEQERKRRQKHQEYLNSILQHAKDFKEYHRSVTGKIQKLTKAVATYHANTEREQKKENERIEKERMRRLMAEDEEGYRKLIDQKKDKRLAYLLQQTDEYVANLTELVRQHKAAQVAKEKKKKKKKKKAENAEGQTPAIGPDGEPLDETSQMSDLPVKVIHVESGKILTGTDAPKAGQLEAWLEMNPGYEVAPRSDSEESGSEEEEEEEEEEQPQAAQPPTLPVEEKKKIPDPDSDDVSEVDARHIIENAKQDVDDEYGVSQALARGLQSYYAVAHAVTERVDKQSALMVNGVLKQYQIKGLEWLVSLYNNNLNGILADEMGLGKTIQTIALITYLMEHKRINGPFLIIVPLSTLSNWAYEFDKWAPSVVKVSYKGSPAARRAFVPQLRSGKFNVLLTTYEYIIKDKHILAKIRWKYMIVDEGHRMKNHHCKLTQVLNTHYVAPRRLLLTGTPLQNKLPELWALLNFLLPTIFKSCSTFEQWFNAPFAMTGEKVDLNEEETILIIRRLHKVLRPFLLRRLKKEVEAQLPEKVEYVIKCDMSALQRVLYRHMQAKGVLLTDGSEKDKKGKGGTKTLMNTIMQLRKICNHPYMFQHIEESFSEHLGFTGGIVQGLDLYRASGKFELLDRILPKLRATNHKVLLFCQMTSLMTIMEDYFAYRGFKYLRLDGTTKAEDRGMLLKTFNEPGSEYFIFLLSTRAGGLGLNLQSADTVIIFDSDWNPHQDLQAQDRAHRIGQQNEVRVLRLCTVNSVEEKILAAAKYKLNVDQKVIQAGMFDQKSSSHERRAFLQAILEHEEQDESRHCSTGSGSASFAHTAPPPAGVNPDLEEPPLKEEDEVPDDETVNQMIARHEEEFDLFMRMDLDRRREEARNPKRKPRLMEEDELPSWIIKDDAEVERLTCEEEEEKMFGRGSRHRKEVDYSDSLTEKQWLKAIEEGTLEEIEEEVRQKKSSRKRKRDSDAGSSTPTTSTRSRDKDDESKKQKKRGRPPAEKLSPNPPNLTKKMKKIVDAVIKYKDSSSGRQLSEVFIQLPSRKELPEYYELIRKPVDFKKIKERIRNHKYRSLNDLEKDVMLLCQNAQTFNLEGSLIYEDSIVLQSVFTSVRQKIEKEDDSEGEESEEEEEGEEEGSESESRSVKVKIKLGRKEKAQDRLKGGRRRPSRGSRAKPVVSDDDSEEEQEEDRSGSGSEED

Compound: Nc1nc2c(ncn2[C@@H]2O[C@H](COP(=O)(O)OP(=O)(O)OP(=O)(O)O)[C@@H](O)[C@H]2O)c(=O)[nH]1 [guanosine triphosphate]
Test: NP40-soluble protein abundance relative to vehicle (solubility fold change) (ratio); higher = more soluble protein in presence of GTP
Conditions: concentration: 10mM
Outline: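 Crude Jurkat lysate, prepared by Dounce homogenisation, was exposed to eight concentrations from 0.1 to 10 mM for 10 min at room temperature and then 3 min at 37 °C. Solubilisation used 0.8% NP40 with benzonase for 60 min at 4 °C, followed by ultracentrifugation and TMT labelling of the supernatant for LC-MS/MS. After vsn normalisation of intensities, each value is the fold change against the detergent-processed vehicle within each replicate, across three independent experiments.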

Target	NP40-soluble protein abundance
UniProt P63167	1.09 ± 0.11
UniProt P84103 and related entries	1.11 ± 0.053
NCBP2 (UniProt P52298)	1.09 ± 0.092
UniProt P54619 and related entries	0.916 ± 0.086
NCS1 (UniProt P62166)	0.8225 ± 0.0015
MVD (UniProt P53602)	0.868 ± 0.042
UniProt P52758	0.904 ± 0.033
UniProt P54578 and related entries	0.876 ± 0.046
YARS (UniProt P54577)	0.849 ± 0.066
UniProt Q00537 and related entries	1.17 ± 0.091
ST13 (UniProt P50502)	0.966 ± 0.013
SUB1 (UniProt P53999)	0.954 ± 0.037
UniProt P57081 and related entries	0.965 ± 0.059
FXR2 (UniProt P51116)	2.23 ± 0.35
RBM6 (UniProt P78332)	1.23 ± 0.07
GALK1 (UniProt P51570)	0.922 ± 0.042
UniProt P67870 and related entries	1.05 ± 0.034
CDK5 (UniProt Q00535)	0.875 ± 0.089
UniProt P57076	0.933 ± 0.059
UniProt P56134 and related entries	0.934 ± 0.022
OXCT1 (UniProt P55809)	0.888 ± 0.058
ARF3 (UniProt P61204)	0.882 ± 0.12
UniProt P61225	0.902 ± 0.033
YBEY (UniProt P58557)	1.05 ± 0.047
UniProt P63092-2|P63092-3|P63092 and related entries	0.847 ± 0.031
AP3M2 (UniProt P53677)	0.883 ± 0.11
RPL7A (UniProt P62424)	0.878 ± 0.14
UniProt P51532 and related entries	1.21 ± 0.21

Individual results from the entries so far:
NP40-soluble protein abundance with SUB1 (UniProt P53999) reads 0.954 ± 0.037
NP40-soluble protein abundance with GALK1 (UniProt P51570) reads 0.922 ± 0.042
